Experimental data as given in PMC10545747 (Nature Communications, 2023).
Square brackets hold non-standard residues; d marks the D form.

Experiment: general procedure: peptide synthesis; DIC, HOBt; cyclization PyBOP/HOBt/DIEA
Conditions: whole synthesis

cyclo([dF]ATRL[dF]PVRL) (SMILES CC(C)C[C@@H]1NC(=O)[C@H](CCCNC(=N)N)NC(=O)[C@H](C(C)C)NC(=O)[C@@H]2CCCN2C(=O)[C@@H](Cc2ccccc2)NC(=O)[C@H](CC(C)C)NC(=O)[C@H](CCCNC(=N)N)NC(=O)[C@H]([C@@H](C)O)NC(=O)[C@H](C)NC(=O)[C@@H](Cc2ccccc2)NC1=O)
isolated yield: 25.0%
final HPLC purity (HPLC): 98.2%
